For at least one compound, name, drawing or mass did not settle the structure.
Molecular target: T1, TbINO1 (Trypanosoma brucei brucei, UniProt Q5QQ46)
T1 construct: Hexa-His (N); made in house; host or cells: E. coli BL21 Rosetta (DE3)
T1 sequence (Q5QQ46 1-528): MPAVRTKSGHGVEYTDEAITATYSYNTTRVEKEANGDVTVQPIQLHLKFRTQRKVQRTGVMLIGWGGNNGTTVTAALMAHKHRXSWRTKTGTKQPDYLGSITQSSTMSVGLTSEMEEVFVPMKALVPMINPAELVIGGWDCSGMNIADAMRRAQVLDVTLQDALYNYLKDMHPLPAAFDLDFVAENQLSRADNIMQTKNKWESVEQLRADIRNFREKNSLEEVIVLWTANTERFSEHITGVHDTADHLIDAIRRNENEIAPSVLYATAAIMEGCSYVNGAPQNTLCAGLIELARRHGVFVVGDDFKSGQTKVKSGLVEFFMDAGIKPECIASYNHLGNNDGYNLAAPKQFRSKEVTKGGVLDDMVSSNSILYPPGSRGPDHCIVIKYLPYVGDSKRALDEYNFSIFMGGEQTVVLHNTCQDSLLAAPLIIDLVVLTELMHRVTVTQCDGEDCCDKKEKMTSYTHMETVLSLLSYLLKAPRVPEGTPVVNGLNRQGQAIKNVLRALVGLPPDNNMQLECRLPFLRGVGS
Assay type: biochemical
Experimental: An alternative reaction mixture consisted of 2 mM Tris-Ac (pH 9), 2 mM glucose-6-phosphate, 1 mM NAD^+, 1 mM DTT, 2 mM NH4Ac and 5 μg protein in a final volume of 20 μL. The reaction was incubated at 37° C. for 1 hr and terminated by heating at 100° C. for 10 min and the addition of 80 μL of 10 mM NaOH. For inhibitor studies the standard reaction mixture was prepared without glucose-6-phosphate, the inhibitor was added to the reaction and incubated on ice for 10 min prior to the addition of glucose-6-phosphate and subsequent incubation of 37° C. for 1 hr.
After quenching the reaction mix was analysed by high performance anion-exchange chromatography using a Dionex HPLC system with a CarboPacPA-1 column and PA-1 guard column (Dionex). The column was pre-equilibrated with 95% Buffer A (1 mM sodium hydroxide) and 5% Buffer B (1M sodium acetate+1 mM sodium hydroxide). An aliquot (20 μL) of the quenched reaction mixture was injected onto the column and eluted a linear gradient of 5-40% […], detected with pulsed amperometric detection and analysed with Chromeleon software (Dionex).
The TbINO1 was pre-incubated with potential inhibitor prior to the addition of glucose-6-phosphate or fructose-6-phosphate and quantification of inositol-3-phosphate and fructose-6-phosphate by HPLC.

Compound: CC(=O)C(=O)O [Pyruvate, pyruvate]
- inhibition of INO1 activity: No inhibition
- inhibition of PGI (glucose-6-phosphate isomerase) activity: No inhibition
